Data source: PubChem BioAssay AID686937 (Drosophila RNAi Screening Center, 2013)

Aim: 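Genes whose loss weakens secretory pathway function in fly cells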 (primary screen)
System: Drosophila S2 cells expressing secreted horseradish peroxidase
Reagent: long dsRNA against Drosophila genes
Timing: about 5.5 days (5 days dsRNA, then 12 h reporter induction)
Challenge: reporter expression induced after 5 days of dsRNA, read 12 h later; inducer not stated
Measured: 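Chemiluminescent measurement of peroxidase in the medium 12 h after reporter induction, following 5 days of dsRNA, given as a z-score per plate; higher means more secretion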
Direction: z-score: higher = more reporter secreted into medium
In all, the deposit lists about 23,000 reagents; below is an unselected part of those that have a named target and a result. 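Reduced-secretion tags in replicate 1 do not always agree with the z-scores; no criterion for assigning the tags was given.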 Names joined by + are all predicted targets of the reagent. Not given: the amount of reagent.

gene knocked down | DRSC id | z-score, replicate 1 | z-score, replicate 2 | z-score, replicate 3 | z-score, replicate 4 | phenotype, replicate 1
lncRNA:CR31647 | DRSC21903 | 0.2 | 0.33 | – | – | –
CG14362 | DRSC14824 | -0.03 | 0.43 | – | – | –
CG34112 | DRSC12235 | 0.22 | -0.19 | – | – | –
lok | DRSC03567 | 0.34 | 0.18 | – | – | –
CG16888 | DRSC02541 | -0.03 | 0.15 | – | – | –
jeb | DRSC06305 | 0.2 | 0.5 | – | – | –
jeb | DRSC06307 | 0.34 | 0.46 | – | – | –
CG5863 | DRSC15898 | -0.14 | 0.04 | – | – | –
Ldsdh1 | DRSC18219 | 0.26 | 0.6 | – | – | –
CG33272 | DRSC09116 | -2.05 | -2.73 | – | – | reduced secretion
CG10211 | DRSC02027 | -0.38 | 0.55 | – | – | –
CG8072 | DRSC10960 | 0.38 | 0.32 | – | – | –
Ccdc85 | DRSC00501 | -1.16 | -1.31 | – | – | –
Cp7Fb | DRSC18034 | 0.3 | 0.47 | – | – | –
CG14644 | DRSC12230 | 0.21 | 0.15 | – | – | –
Jon66Cii | DRSC10778 | 0.27 | 0.5 | – | – | –
Mco1 | DRSC02720 | 0.47 | 0.26 | – | – | –
CG7714 | DRSC16300 | 0.37 | 0.48 | – | – | –
CG12278 | DRSC14494 | -0.15 | -0.47 | – | – | –
Gp93 | DRSC15827 | 0.12 | 0.31 | – | – | –
Achl | DRSC06665 | 0.24 | 0.11 | – | – | –
teq | DRSC10298 | 0.42 | -0.02 | – | – | –
teq | DRSC11301 | 0.31 | 0.02 | – | – | –
teq | DRSC11302 | 0.44 | 0 | – | – | –
CG15615 | DRSC06568 | 0.3 | 0.41 | – | – | –
mas | DRSC08720 | 0.42 | 0.19 | – | – | –
TwdlH | DRSC14735 | 0.53 | 0.47 | – | – | –
Septin4 | DRSC20205 | 0.23 | 0.21 | – | – | –
CG34175 | DRSC00424 | 0.05 | 0.43 | – | – | –
Oseg6 | DRSC06066 | 0.17 | 0.15 | – | – | –
Jhbp16 | DRSC15039 | 0.37 | 0.46 | – | – | –
CG18788 | DRSC02697 | 0.43 | 0.26 | – | – | –
CG13186 | DRSC06311 | 0.54 | 0.68 | – | – | –
CG12702 | DRSC19487 | 0.21 | 0.53 | – | – | –
CG32213 + CG12519 + 825-Oak + 1 more | DRSC09615 | 0.27 | 0.51 | 0.41 | 0.4 | –
Fdh | DRSC16670 | 0.19 | 0.22 | – | – | –
CG12560 | DRSC02174 | 0.5 | 0.3 | – | – | –
CG43193 (retired record) | DRSC20426 | 0.24 | -2.66 | – | – | –
Pkc98E | DRSC16791 | 0.12 | 0.45 | – | – | –
Gr9a | DRSC22506 | 0.13 | 0.1 | – | – | –
CG9168 | DRSC08633 | 0.35 | 0.31 | – | – | –
Tace | DRSC16340 | 0.57 | 0.65 | – | – | –
lbk | DRSC07178 | 0.23 | 0.35 | – | – | –
Gmer | DRSC04376 | 0.07 | 0.21 | – | – | –
fne | DRSC20332 | -1.08 | -1.31 | – | – | –
fne | DRSC22418 | 1.24 | 0.51 | – | – | –
CG3581 | DRSC15499 | 0.28 | 0.4 | – | – | –
CG8478 | DRSC16427 | 0.36 | 0.53 | – | – | –
CG15878 | DRSC08486 | 0.11 | -0.18 | – | – | –
lncRNA:yar | DRSC17679 | 0.39 | 0.19 | 0.52 | 0.33 | –
lncRNA:yar | DRSC21708 | 0.65 | 3.11 | – | – | –
ctrip | DRSC12242 | 0.02 | -0.26 | – | – | –
ctrip | DRSC12287 | -0.05 | -0.12 | – | – | –
ctrip | DRSC22449 | -4.68 | -1.31 | – | – | reduced secretion
CG5644 | DRSC10531 | 0.27 | 0.09 | – | – | –
Pdh | DRSC11249 | 0.23 | 0.35 | – | – | –
p23 | DRSC15158 | 0.83 | 0.75 | – | – | –
ppk3 | DRSC04275 | 0.13 | 0.31 | – | – | –
pb | DRSC12409 | 0.6 | 0.07 | – | – | –
pb | DRSC12629 | 0.12 | -0.63 | – | – | –
Mur89F | DRSC15544 | 0.5 | 0.37 | – | – | –
CG6937 + btn | DRSC16917 | 0.3 | 0.37 | – | – | –
CG42594 | DRSC18053 | -2.67 | -2.9 | – | – | reduced secretion
CG42594 | DRSC18408 | 0.29 | 0.23 | – | – | –
cocoon | DRSC10916 | 0.46 | 0.2 | – | – | –

Next part, starting with the last 3 of the part before.
gene knocked down | DRSC id | z-score, replicate 1 | z-score, replicate 2 | z-score, replicate 3 | z-score, replicate 4 | phenotype, replicate 1
CG42594 | DRSC18053 | -2.67 | -2.9 | – | – | reduced secretion
CG42594 | DRSC18408 | 0.29 | 0.23 | – | – | –
cocoon | DRSC10916 | 0.46 | 0.2 | – | – | –
Pez | DRSC03397 | 0.39 | 0.15 | – | – | –
CG10803 | DRSC17763 | 0.11 | 0 | – | – | –
tin | DRSC17083 | 0.53 | 0.54 | – | – | –
tin | DRSC22853 | -2.15 | -1.8 | – | – | reduced secretion
CASK | DRSC14588 | 0.17 | 0.35 | 0.51 | -0.02 | –
CASK | DRSC16597 | 0.32 | -0.56 | – | – | –
CASK | DRSC16598 | 0.29 | 0.37 | – | – | –
CASK | DRSC21917 | 0.66 | 0.02 | – | – | –
mirr | DRSC11369 | 0.58 | 0.88 | – | – | –
CG31404 | DRSC15497 | 0.38 | 0.46 | – | – | –
Tsp97E | DRSC16019 | 0.04 | 0.22 | – | – | –
ppk20 | DRSC16260 | 0.26 | 0.31 | – | – | –
ProtA | DRSC03372 | 0.11 | 0.31 | – | – | –
rec | DRSC14998 | 0.06 | 0.18 | – | – | –
rec | DRSC15656 | 0.11 | 0.17 | – | – | –
Fnta | DRSC00557 | 0.29 | 0.28 | – | – | –
CG42284 | DRSC22094 | 0.18 | 0.21 | – | – | –
CG42284 | DRSC22342 | 0.22 | -0.23 | – | – | –
CG33768 | DRSC11715 | -0.13 | -0.07 | – | – | –
Prtl99C | DRSC15049 | 0.06 | -0.21 | – | – | –
CG10413 | DRSC02052 | 0.4 | 0.26 | – | – | –
atos | DRSC07318 | 0.47 | 0.52 | – | – | –
AANATL2 | DRSC03227 | 0.52 | 0.32 | – | – | –
CG10638 | DRSC09762 | 0.42 | 0.1 | – | – | –
scw | DRSC01711 | -0.14 | 0.05 | – | – | –
scw | DRSC21252 | 0.55 | 0.16 | – | – | –
CG10126 | DRSC14191 | 0.25 | 0.34 | – | – | –
CG8939 | DRSC20127 | 0.31 | 0.14 | – | – | –
kl-2 | DRSC21136 | 0.19 | 0.1 | – | – | –
CG13026 | DRSC09906 | 0.3 | 0.32 | – | – | –
Kdm4B | DRSC06862 | 0.23 | -0.48 | – | – | –
mesh | DRSC14472 | 0.75 | 0.51 | 0.38 | 0.26 | –
mesh | DRSC15098 | 0.1 | 0.03 | – | – | –
mesh | DRSC15099 | 0.36 | 0.27 | – | – | –
CG15362 | DRSC00392 | 0.29 | 0.43 | – | – | –
CG30259 | DRSC04164 | 0.02 | 0.05 | – | – | –
CG30259 | DRSC04165 | 0.08 | 0.04 | – | – | –
Ugt36E1 | DRSC02599 | 0.23 | 0.15 | – | – | –
Nubp1 | DRSC02639 | 0.2 | 0.26 | – | – | –
